Reference: PubChem BioAssay AID248 (DTP/NCI, 2004)
The list is a part of this screen's results and no random one: it is rich in T/C values a quarter to a half above the control, in often repeated tests (any T/C) and in doses without a T/C. Other doses and runs of a compound stand elsewhere. T/C gives the treated animals as a percentage of the vehicle group. Some entries give survivors of the animals treated and no T/C: the source holds a T/C of zero for them, seemingly a mark for toxic or unscored doses. Some doses without a T/C left all or most animals alive at the check, yet need not have been tolerated: the source hardly ever lists a survival T/C far under the control, and the zero likely stands for such cases as well. Survivors were counted at the toxicity check, usually on the fifth day, unless a day is given; later deaths do not show. Schedule codes are those of the source, taken here to give the interval after Q, in days (D) or hours (H), and the number of doses after X. Some doses were run more than once; the results are listed from low to high. Some schedules carry Z or #; the key to these is not given. For survival time, this PubChem deposit counts one and a half times the control or more as active, and values a quarter to a half above the control carry no call in these data; other NCI protocols may use other cut-offs. Signs of the kind (2×) say how often a value occurs here. Some T/C values carry the count of animals alive at the toxicity check (mostly the fifth day); without a count, all were alive then.

Tested on: L1210 leukemia ip in BDF1 mice, survival T/C
Experiment: NCI In Vivo Anticancer Drug Screen. Data for tumor model L1210 Leukemia (intraperitoneal) in B6D2F1 (BDF1) mice
Conditions: T/C endpoint: mean survival time, higher T/C = longer survival
[1] = dose: 12.0 micrograms/kg/injection, schedule: Q01DX Z (ip), vehicle: carboxymethylcellulose (CMC)
[2] = dose: 18.0 micrograms/kg/injection, schedule: Q01DX Z (ip), vehicle: carboxymethylcellulose (CMC)

Cc1c2oc3c(C)ccc(C(=O)N[C@@H]4C(=O)N[C@H](C(C)C)C(=O)N5CCC[C@H]5C(=O)N(C)CC(=O)N(C)[C@@H](C(C)C)C(=O)O[C@H]4C)c3nc-2c(C(=O)N[C@@H]2C(=O)N[C@H](C(C)C)C(=O)N3CCC[C@H]3C(=O)N(C)CC(=O)N(C)[C@@H](C(C)C)C(=O)O[C@H]2C)c(N)c1=O
T/C (dose: 0.02 mg/kg/injection, schedule: Q01DX009 (ip), vehicle: water, evaluated on day 5): 134 % of control
T/C (dose: 0.02 mg/kg/injection, schedule: Q01DX009 (ip), vehicle: water, evaluated on day 60): 134 % of control
T/C (dose: 0.02 mg/kg/injection, schedule: Q01DX Z (ip), vehicle: saline): 125 and 133 % of control
T/C (dose: 0.03 mg/kg/injection, schedule: Q01DX009 (ip), vehicle: water, evaluated on day 5): 140 % of control
T/C (dose: 0.03 mg/kg/injection, schedule: Q01DX009 (ip), vehicle: water, evaluated on day 60): 140 % of control
T/C (dose: 0.03 mg/kg/injection, schedule: Q01DX Z (ip), vehicle: saline): 125 and 142 % of control
T/C (dose: 0.04 mg/kg/injection, schedule: Q01DX Z (ip), vehicle: carboxymethylcellulose (CMC)): 141 % of control
T/C (dose: 0.04 mg/kg/injection, schedule: Q02DX010 (ip), vehicle: carboxymethylcellulose (CMC)): 125 and 127 % of control
T/C (dose: 0.04 mg/kg/injection, schedule: Q02DX010 (ip), vehicle: saline): 116, 124, 125, 129 % of control
T/C (dose: 0.05 mg/kg/injection, schedule: Q01DX009 (ip), vehicle: other): 125 % of control
T/C (dose: 0.05 mg/kg/injection, schedule: Q01DX009 (ip), vehicle: saline + alcohol): 140 % of control
T/C (dose: 0.05 mg/kg/injection, schedule: Q01DX Z (ip), vehicle: saline): 141 and 142 % of control
T/C (dose: 0.07 mg/kg/injection, schedule: Q02DX010 (ip), vehicle: carboxymethylcellulose (CMC)): 127 % of control (2×)
T/C (dose: 0.07 mg/kg/injection, schedule: Q02DX010 (ip), vehicle: other): 129 % of control
T/C (dose: 0.07 mg/kg/injection, schedule: Q02DX010 (ip), vehicle: saline): 122, 127 (2×), 182 % of control
T/C (dose: 0.07 mg/kg/injection, schedule: Q04DX003 (ip), vehicle: saline + alcohol): 132 % of control
T/C (dose: 0.08 mg/kg/injection, schedule: Q01DX Z (ip), vehicle: carboxymethylcellulose (CMC)): 141 % of control [9 of 10 alive]
T/C (dose: 0.1 mg/kg/injection, schedule: Q01DX009 (ip), vehicle: saline): 136 % of control
T/C (dose: 0.1 mg/kg/injection, schedule: Q02DX010 (ip), vehicle: carboxymethylcellulose (CMC)): 127 and 139 % of control
T/C (dose: 0.1 mg/kg/injection, schedule: Q02DX010 (ip), vehicle: other): 139 % of control
T/C (dose: 0.1 mg/kg/injection, schedule: Q02DX010 (ip), vehicle: saline): 118, 131, 138, 143 % of control
survivor count (dose: 0.12 mg/kg/injection, schedule: Q01DX Z (ip), vehicle: carboxymethylcellulose (CMC)): 9 of 10
T/C (dose: 0.15 mg/kg/injection, schedule: Q02DX010 (ip), vehicle: carboxymethylcellulose (CMC)): 140 % of control
T/C (dose: 0.15 mg/kg/injection, schedule: Q02DX010 (ip), vehicle: saline): 83, 109, 134, 137 % of control
T/C (dose: 0.15 mg/kg/injection, schedule: Q04DX003 (ip), vehicle: saline + alcohol): 131 % of control
survivor count (dose: 0.16 mg/kg/injection, schedule: Q01DX Z (ip), vehicle: carboxymethylcellulose (CMC)): 10 of 10
T/C (dose: 0.2 mg/kg/injection, schedule: Q01DX001 (ip), vehicle: saline + alcohol): 127 % of control
survivor count (dose: 0.2 mg/kg/injection, schedule: Q01DX009 (ip), vehicle: other): 6 of 6
survivor count (dose: 0.2 mg/kg/injection, schedule: Q01DX010 (ip), vehicle: other): 5 of 6 and 6 of 6
survivor count (dose: 0.2 mg/kg/injection, schedule: Q01DX Z (ip), vehicle: carboxymethylcellulose (CMC)): 8 of 10
T/C (dose: 0.2 mg/kg/injection, schedule: Q04DX003 (ip), vehicle: other): 130 % of control
T/C (dose: 0.2 mg/kg/injection, schedule: Q04DX003 (ip), vehicle: water): 125 % of control
T/C (dose: 0.23 mg/kg/injection, schedule: Q02DX010 (ip), vehicle: saline): 69, 90, 102, 112 % of control
survivor count (dose: 0.25 mg/kg/injection, schedule: Q01DX009 (ip), vehicle: saline): 3 of 6
T/C (dose: 0.26 mg/kg/injection, schedule: Q04DX003 (ip), vehicle: water, evaluated on day 5): 146 % of control
T/C (dose: 0.26 mg/kg/injection, schedule: Q04DX003 (ip), vehicle: water, evaluated on day 30): 141 % of control
T/C (dose: 0.3 mg/kg/injection, schedule: Q01DX001 (ip), vehicle: saline, evaluated on day 5): 117 and 118 % of control
T/C (dose: 0.3 mg/kg/injection, schedule: Q01DX001 (ip), vehicle: saline, evaluated on day 60): 117 and 118 % of control
T/C (dose: 0.3 mg/kg/injection, schedule: Q04DX003 (ip), vehicle: saline + alcohol): 144 % of control
T/C (dose: 0.4 mg/kg/injection, schedule: Q01DX001 (ip), vehicle: saline + alcohol): 129 % of control
T/C (dose: 0.4 mg/kg/injection, schedule: Q01DX001 (ip), vehicle: saline, evaluated on day 5): 111 and 173 % of control
T/C (dose: 0.4 mg/kg/injection, schedule: Q01DX001 (ip), vehicle: saline, evaluated on day 46): 134 % of control
T/C (dose: 0.4 mg/kg/injection, schedule: Q01DX001 (ip), vehicle: saline, evaluated on day 60): 111, 130, 173 % of control
survivor count (dose: 0.4 mg/kg/injection, schedule: Q01DX010 (ip), vehicle: other): 4 of 6 and 6 of 6
T/C (dose: 0.4 mg/kg/injection, schedule: Q04DX003 (ip), vehicle: other): 127 % of control
T/C (dose: 0.4 mg/kg/injection, schedule: Q04DX003 (ip), vehicle: water): 147 % of control
T/C (dose: 0.45 mg/kg/injection, schedule: Q## X004 (ip), vehicle: saline): 137 % of control
T/C (dose: 0.5 mg/kg/injection, schedule: Q01DX001 (ip), vehicle: saline, evaluated on day 5): 122 and 184 % of control
T/C (dose: 0.5 mg/kg/injection, schedule: Q01DX001 (ip), vehicle: saline, evaluated on day 60): 122 and 184 % of control
survivor count (dose: 0.5 mg/kg/injection, schedule: Q01DX009 (ip), vehicle: saline): 6 of 6
T/C (dose: 0.6 mg/kg/injection, schedule: Q01DX001 (ip), vehicle: saline, evaluated on day 5): 125 and 127 % of control
T/C (dose: 0.6 mg/kg/injection, schedule: Q01DX001 (ip), vehicle: saline, evaluated on day 46): 143 % of control
T/C (dose: 0.6 mg/kg/injection, schedule: Q01DX001 (ip), vehicle: saline, evaluated on day 60): 125 and 127 % of control
T/C (dose: 0.67 mg/kg/injection, schedule: Q## X004 (ip), vehicle: saline): 144 % of control
T/C (dose: 0.7 mg/kg/injection, schedule: Q01DX001 (ip), vehicle: saline, evaluated on day 5): 141 % of control
T/C (dose: 0.7 mg/kg/injection, schedule: Q01DX001 (ip), vehicle: saline, evaluated on day 60): 141 % of control
survivor count (dose: 0.8 mg/kg/injection, schedule: Q01DX001 (ip), vehicle: saline + alcohol): 8 of 8
T/C (dose: 0.8 mg/kg/injection, schedule: Q01DX001 (ip), vehicle: saline, evaluated on day 5): 134 % of control
T/C (dose: 0.8 mg/kg/injection, schedule: Q01DX001 (ip), vehicle: saline, evaluated on day 60): 130 and 134 % of control
T/C (dose: 0.9 mg/kg/injection, schedule: Q01DX001 (ip), vehicle: saline): 145 % of control
survivor count (dose: 1.0 mg/kg/injection, schedule: Q04DX003 (ip), vehicle: saline): 4 of 6
T/C (dose: 1.3 mg/kg/injection, schedule: Q01DX001 (ip), vehicle: saline): 126 % of control [7 of 10 alive]
survivor count (dose: 1.6 mg/kg/injection, schedule: Q01DX001 (ip), vehicle: saline + alcohol): 3 of 8
T/C (dose: 1.8 mg/kg/injection, schedule: Q## X032 (ip), vehicle: saline): 136 % of control
survivor count (dose: 2.0 mg/kg/injection, schedule: Q01DX001 (ip), vehicle: saline): 1 of 10
survivor count (dose: 2.0 mg/kg/injection, schedule: Q04DX003 (ip), vehicle: saline): 1 of 6
survivor count (dose: 3.0 mg/kg/injection, schedule: Q01DX001 (ip), vehicle: saline): 1 of 10
T/C (dose: 3.0 mg/kg/injection, schedule: Q#A X Z (ip), vehicle: saline): 130 % of control
T/C (dose: 6.0 mg/kg/injection, schedule: Q#A X Z (ip), vehicle: other): 131 % of control
T/C (dose: 6.0 mg/kg/injection, schedule: Q#A X Z (ip), vehicle: saline): 130 % of control
T/C (dose: 12.5 mg/kg/injection, schedule: Q#A X Z (ip), vehicle: other): 142 % of control
survivor count (dose: 50.0 mg/kg/injection, schedule: Q#A X Z (ip), vehicle: other): 5 of 6
T/C (dose: 6.0 micrograms/kg/injection, schedule: Q01DX010 (ip), vehicle: other): 109, 111, 112, 119 % of control
T/C (dose: 7.0 micrograms/kg/injection, schedule: Q01DX009 (ip), vehicle: saline): 100, 104, 109, 124 % of control
T/C (dose: 12.0 micrograms/kg/injection, schedule: Q01DX010 (ip), vehicle: other): 127 % of control
T/C [1]: 130 % of control
survivor count [1]: 1 of 6
T/C (dose: 12.0 micrograms/kg/injection, schedule: Q01DX Z (ip), vehicle: other): 131 % of control
T/C (dose: 12.5 micrograms/kg/injection, schedule: Q01DX009 (ip), vehicle: saline + alcohol): 132 % of control
T/C (dose: 12.5 micrograms/kg/injection, schedule: Q01DX Z (ip), vehicle: saline): 142 % of control
T/C (dose: 15.0 micrograms/kg/injection, schedule: Q01DX009 (ip), vehicle: saline): 109, 114, 117, 128 % of control
T/C (dose: 16.0 micrograms/kg/injection, schedule: Q01DX009 (ip), vehicle: water, evaluated on day 5): 130 % of control
T/C (dose: 16.0 micrograms/kg/injection, schedule: Q01DX009 (ip), vehicle: water, evaluated on day 30): 126 % of control
T/C [2]: 140 % of control
survivor count [2]: 0 of 6
T/C (dose: 19.0 micrograms/kg/injection, schedule: Q03DX Z (ip), vehicle: saline): 132 % of control
T/C (dose: 20.0 micrograms/kg/injection, schedule: Q01DX015 (ip), vehicle: saline): 128 % of control
T/C (dose: 25.0 micrograms/kg/injection, schedule: Q01DX009 (ip), vehicle: saline + alcohol, evaluated on day 30): 135 % of control
T/C (dose: 25.0 micrograms/kg/injection, schedule: Q01DX009 (ip), vehicle: saline + alcohol, evaluated on day 60): 135 % of control
T/C (dose: 25.0 micrograms/kg/injection, schedule: Q01DX010 (ip), vehicle: other): 114, 123, 134, 145 % of control
T/C (dose: 25.0 micrograms/kg/injection, schedule: Q01DX Z (ip), vehicle: other): 140 % of control
survivor count (dose: 27.0 micrograms/kg/injection, schedule: Q01DX Z (ip), vehicle: carboxymethylcellulose (CMC)): 0 of 6
T/C (dose: 30.0 micrograms/kg/injection, schedule: Q01DX009 (ip), vehicle: saline): 116, 121, 124, 131 % of control
T/C (dose: 30.0 micrograms/kg/injection, schedule: Q01DX015 (ip), vehicle: saline): 133 % of control
